According to patent US11135145B2 (priority 2015, dated 2021):
For some of these results: At least one structure is not confirmed: it was looked up by name or label, or the drawing left a doubt. Some of these results come from one statement about several compounds together.

How the values were obtained:
Format in all cases: cell-based, human
Glo1 mRNA = Glo1 mRNA in HepG2, HAECs and BJ fibroblasts
[1] = tested on: NQO-1 antioxidant response element (NQO-1 - ARE); assay: NQO-1-ARE luciferase reporter HepG2 cell line; conditions: 5 μM
Procedure: A pGL4.22[luc2CP/puro] reporter vector containing NQO-1-ARE was transfected into the HepG2 cell line according to the method set forth in Xue et al (Biochem J 443: 213-222, (2012)). Transfected HepG2 cells were selected with puromycin (1 μg/ml). After culture for 3 weeks, puromycin-resistant cells were screened for luciferase activity after treatment with 4 μM sulforaphane for 6 hours. After validation of positive clones by measuring luciferase activity, the NQO-1-ARE stable cell line was expanded in selection media.
(§1) Stable transfectant cell line was incubated with and without test compounds for 6 hours in MEM with 10% fetal calf serum and 2 mM glutamine under an atmosphere of 5% CO2 in air, 100% humidity and 37° C. For the reporter assay, 100 μl Cell Culture Lysis Reagent (CCLR, Promega) was added to cell and shaken gently for 30 minutes. The mixture of cell lysate was centrifuged (12,000 g, 5 minutes, 4° C.) and an aliquot (20 μl) of supernatant used in the reporter assay. The luciferase activity was determined using a Luciferase Assay System (Promega). The luciferase response is given in Relative Light Units (RLU).
(§2) These were produced by transfection of a pGL4.22[luc2CP/puro] reporter vector containing NQO1-ARE or GLO1-ARE into the HepG2 cell line. […] The luciferase activity was determined using a Luciferase Assay System (Promega). […]

[2] = tested on: glyoxalase 1 antioxidant response element (GLO1-ARE); assay: Stable transfectant GLO1-ARE luciferase reporter HepG2 cell line; conditions: 5 μM
Procedure: A pGL4.22[luc2CP/puro] reporter vector containing GLO1-ARE was transfected into the HepG2 cell line according to the method set forth in Xue et al. (Biochem. J., 443, 213-222 (2012)). Transfected HepG2 cells were selected with puromycin (1 μg/ml). After culture for 3 weeks, puromycin-resistant cells were screened for luciferase activity after treatment with 4 μM sulforaphane for 6 hours. After validation of positive clones by measuring luciferase activity, the GLO1-ARE stable cell line, R1F3, was expanded in selection media.
as §1, with “line R1F3” for “line”
as §2

Oc1ccc(/C=C/c2cc(O)cc(O)c2)cc1 [trans-resveratrol]
increase in Glo1 mRNA (Glo1 mRNA): 10-30%

COc1ccc(C2CC(=O)c3c(O)cc(O)cc3O2)cc1O (stereo not shown) [hesperetin, 2,3-Dihydro-5,7-dihydroxy-2-(3-hydroxy-4-methoxyphenyl)-4H-1-benzopyran-4-one]
increase in Glo1 mRNA (Glo1 mRNA): 10-30%

COc1cc(/C=C/c2ccc(O)cc2)cc(OC)c1 [Pterostilbene, pterostilbene]
NQO-1—ARE transcription in HepG2 cells (in words) [1]: up-regulate | GLO1-ARE transcription in HepG2 cells (in words) [2]: up-regulate
